Measured values from publication PMC9446545.
No constants are given. Whether binding was seen depends on the method and setting. Binding seen in cells or lysates may run through a third protein. A yes stands for co-enrichment or nearness to the bait. Other partners may have been found.

The chains behind the UniProt entries cited, without tags or fusion partners.
UniProt P70288: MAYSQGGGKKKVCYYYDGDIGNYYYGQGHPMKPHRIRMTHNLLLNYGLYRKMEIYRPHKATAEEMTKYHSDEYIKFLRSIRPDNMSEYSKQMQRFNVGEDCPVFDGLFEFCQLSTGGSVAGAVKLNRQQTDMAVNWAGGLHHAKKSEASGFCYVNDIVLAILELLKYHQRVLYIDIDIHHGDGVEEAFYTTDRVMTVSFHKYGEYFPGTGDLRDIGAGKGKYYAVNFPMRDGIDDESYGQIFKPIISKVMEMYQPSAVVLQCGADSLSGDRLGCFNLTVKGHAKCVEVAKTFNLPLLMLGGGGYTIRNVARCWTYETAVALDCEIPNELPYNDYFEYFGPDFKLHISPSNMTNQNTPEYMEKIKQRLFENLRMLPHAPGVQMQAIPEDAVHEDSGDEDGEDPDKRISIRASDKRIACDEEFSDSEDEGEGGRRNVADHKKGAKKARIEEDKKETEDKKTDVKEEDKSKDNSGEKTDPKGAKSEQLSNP
UniProt Q91ZW3: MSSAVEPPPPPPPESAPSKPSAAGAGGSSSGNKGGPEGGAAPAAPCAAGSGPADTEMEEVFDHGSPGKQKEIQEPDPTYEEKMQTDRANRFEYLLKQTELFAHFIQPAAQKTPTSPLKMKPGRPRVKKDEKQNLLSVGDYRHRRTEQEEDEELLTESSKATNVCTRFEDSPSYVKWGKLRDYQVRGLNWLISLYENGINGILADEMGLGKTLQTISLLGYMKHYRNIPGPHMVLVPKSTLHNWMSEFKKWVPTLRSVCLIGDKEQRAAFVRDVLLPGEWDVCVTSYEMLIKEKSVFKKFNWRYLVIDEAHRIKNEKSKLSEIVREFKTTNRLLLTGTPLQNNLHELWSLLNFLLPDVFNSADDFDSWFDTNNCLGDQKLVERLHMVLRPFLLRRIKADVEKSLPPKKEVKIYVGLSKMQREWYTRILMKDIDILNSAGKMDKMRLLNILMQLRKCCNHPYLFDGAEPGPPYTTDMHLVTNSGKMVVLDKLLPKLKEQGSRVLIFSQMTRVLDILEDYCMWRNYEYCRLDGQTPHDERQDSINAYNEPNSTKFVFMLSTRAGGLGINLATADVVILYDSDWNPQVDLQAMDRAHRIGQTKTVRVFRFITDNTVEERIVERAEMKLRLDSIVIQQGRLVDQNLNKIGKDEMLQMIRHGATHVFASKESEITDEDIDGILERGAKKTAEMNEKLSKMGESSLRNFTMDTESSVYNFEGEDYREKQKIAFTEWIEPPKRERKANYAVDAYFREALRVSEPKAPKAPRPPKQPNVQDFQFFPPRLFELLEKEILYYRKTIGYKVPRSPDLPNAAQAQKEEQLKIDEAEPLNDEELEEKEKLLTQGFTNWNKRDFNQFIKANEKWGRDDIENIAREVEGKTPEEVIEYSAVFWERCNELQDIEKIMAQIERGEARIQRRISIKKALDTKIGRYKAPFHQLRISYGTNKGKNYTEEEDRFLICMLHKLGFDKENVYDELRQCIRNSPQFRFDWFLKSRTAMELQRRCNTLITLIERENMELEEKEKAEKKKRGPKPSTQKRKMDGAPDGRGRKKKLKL
UniProt O09106: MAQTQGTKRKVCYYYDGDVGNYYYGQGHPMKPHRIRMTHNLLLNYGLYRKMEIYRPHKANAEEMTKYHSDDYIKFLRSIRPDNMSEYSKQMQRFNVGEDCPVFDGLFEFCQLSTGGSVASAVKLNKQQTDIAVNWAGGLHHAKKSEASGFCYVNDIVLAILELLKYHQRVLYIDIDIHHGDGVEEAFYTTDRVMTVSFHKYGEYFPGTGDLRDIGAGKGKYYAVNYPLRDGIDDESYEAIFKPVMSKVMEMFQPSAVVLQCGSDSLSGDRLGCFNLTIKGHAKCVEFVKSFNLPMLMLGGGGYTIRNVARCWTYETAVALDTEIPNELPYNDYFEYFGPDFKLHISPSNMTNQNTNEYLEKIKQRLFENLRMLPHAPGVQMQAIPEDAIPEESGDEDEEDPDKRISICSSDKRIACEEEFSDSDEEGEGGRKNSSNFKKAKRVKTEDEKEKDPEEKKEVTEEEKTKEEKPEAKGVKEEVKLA
UniProt Q6PDQ2: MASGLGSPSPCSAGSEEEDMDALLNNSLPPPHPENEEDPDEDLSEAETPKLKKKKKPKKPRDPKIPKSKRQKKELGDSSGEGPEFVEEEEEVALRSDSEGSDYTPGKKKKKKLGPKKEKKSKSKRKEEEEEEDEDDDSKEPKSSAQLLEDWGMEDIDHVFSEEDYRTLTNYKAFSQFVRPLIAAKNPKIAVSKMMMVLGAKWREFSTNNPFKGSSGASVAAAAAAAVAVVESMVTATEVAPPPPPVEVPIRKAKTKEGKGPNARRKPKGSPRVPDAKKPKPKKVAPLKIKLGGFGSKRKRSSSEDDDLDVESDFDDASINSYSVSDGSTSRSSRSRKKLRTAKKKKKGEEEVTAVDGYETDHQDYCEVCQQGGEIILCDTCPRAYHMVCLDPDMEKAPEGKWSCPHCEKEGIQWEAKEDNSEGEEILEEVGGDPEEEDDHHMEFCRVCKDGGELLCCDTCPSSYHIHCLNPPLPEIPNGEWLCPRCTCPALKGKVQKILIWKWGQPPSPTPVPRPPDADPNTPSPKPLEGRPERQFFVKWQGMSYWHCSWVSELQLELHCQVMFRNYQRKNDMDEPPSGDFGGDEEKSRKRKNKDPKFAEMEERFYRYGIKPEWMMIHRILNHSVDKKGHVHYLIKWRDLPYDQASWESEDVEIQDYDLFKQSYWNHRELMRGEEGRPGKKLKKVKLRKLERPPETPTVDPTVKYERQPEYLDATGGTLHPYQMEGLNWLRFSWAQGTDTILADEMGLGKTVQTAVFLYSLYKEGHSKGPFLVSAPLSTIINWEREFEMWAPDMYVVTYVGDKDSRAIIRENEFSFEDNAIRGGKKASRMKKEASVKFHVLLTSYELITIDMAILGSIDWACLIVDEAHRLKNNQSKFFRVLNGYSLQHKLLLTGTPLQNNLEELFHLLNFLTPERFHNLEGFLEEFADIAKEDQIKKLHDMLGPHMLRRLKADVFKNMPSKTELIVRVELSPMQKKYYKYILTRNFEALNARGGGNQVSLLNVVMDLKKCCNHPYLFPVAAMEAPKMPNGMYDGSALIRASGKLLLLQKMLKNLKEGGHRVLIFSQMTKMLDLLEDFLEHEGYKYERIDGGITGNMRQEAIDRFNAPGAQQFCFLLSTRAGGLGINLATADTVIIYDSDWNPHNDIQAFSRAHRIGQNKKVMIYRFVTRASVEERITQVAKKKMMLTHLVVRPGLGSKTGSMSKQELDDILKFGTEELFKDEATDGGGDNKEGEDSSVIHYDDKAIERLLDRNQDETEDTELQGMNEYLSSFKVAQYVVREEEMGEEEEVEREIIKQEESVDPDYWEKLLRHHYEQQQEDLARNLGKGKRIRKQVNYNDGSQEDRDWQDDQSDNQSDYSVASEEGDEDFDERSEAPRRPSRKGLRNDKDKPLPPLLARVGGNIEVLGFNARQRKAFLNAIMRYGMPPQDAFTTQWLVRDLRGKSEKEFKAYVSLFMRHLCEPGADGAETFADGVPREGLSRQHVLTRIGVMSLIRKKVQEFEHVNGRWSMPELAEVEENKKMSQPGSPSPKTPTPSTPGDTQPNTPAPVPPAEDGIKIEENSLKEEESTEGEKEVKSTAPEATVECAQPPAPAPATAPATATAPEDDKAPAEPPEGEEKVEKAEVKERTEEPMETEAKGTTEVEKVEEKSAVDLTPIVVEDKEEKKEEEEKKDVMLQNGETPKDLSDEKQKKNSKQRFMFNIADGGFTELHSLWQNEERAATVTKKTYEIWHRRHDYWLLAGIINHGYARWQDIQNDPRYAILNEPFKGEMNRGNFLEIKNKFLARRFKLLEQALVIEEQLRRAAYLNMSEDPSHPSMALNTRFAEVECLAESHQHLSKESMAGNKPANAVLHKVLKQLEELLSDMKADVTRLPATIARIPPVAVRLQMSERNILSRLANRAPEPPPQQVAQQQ
UniProt Q6P5D8: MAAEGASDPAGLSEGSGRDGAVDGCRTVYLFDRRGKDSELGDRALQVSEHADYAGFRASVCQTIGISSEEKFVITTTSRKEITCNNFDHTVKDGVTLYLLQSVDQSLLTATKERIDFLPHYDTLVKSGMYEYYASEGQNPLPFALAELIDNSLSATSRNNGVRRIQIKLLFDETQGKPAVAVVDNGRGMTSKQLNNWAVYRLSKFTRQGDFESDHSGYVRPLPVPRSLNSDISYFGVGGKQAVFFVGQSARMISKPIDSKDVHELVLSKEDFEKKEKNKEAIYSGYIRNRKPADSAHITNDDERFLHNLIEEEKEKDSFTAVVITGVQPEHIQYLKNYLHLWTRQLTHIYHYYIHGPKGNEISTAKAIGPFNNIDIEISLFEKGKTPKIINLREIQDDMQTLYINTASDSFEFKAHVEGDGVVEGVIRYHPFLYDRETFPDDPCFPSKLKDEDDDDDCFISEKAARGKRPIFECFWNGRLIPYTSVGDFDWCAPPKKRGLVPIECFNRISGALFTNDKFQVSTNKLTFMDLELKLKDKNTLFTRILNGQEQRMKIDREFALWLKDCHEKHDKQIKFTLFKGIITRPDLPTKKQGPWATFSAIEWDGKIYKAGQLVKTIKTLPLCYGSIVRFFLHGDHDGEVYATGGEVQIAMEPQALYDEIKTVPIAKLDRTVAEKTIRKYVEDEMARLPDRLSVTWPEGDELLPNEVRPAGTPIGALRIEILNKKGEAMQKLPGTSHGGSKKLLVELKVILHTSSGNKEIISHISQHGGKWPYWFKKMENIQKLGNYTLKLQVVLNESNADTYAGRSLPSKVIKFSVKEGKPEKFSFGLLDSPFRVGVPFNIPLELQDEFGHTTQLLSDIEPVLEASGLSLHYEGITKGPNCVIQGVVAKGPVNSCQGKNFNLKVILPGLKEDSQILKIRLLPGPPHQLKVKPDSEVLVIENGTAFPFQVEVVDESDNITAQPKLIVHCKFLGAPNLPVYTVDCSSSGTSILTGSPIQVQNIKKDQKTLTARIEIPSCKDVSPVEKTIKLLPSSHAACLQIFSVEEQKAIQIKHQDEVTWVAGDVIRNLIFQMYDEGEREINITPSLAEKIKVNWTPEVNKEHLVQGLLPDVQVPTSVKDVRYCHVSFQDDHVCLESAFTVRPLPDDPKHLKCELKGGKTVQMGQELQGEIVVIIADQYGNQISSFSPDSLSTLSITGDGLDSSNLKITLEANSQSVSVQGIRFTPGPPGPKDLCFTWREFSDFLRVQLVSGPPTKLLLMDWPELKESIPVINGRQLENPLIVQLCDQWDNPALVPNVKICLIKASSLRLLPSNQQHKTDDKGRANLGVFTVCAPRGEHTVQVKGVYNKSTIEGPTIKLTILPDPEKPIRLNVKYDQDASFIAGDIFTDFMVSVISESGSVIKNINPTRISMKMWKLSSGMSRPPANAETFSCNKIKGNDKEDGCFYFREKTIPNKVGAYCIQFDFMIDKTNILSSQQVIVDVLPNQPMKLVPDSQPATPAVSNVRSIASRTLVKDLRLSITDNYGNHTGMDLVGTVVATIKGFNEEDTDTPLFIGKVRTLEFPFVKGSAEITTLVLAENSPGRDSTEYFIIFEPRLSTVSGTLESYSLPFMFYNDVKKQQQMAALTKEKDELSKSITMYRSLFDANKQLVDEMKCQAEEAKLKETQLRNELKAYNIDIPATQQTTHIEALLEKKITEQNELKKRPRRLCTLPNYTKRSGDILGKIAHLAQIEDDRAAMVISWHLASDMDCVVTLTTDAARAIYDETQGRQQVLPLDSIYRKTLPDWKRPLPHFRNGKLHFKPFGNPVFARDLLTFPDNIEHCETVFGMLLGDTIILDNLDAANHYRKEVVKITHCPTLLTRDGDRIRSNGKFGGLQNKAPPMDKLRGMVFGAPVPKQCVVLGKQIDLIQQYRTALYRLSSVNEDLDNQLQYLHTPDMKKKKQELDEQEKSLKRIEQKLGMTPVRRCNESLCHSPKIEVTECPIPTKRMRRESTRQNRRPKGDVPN

T1: ZCWPW1 (endogenous, mouse testes) (mouse (endogenous in mouse testes)) (UniProt Q6IR42)
T1 sequence: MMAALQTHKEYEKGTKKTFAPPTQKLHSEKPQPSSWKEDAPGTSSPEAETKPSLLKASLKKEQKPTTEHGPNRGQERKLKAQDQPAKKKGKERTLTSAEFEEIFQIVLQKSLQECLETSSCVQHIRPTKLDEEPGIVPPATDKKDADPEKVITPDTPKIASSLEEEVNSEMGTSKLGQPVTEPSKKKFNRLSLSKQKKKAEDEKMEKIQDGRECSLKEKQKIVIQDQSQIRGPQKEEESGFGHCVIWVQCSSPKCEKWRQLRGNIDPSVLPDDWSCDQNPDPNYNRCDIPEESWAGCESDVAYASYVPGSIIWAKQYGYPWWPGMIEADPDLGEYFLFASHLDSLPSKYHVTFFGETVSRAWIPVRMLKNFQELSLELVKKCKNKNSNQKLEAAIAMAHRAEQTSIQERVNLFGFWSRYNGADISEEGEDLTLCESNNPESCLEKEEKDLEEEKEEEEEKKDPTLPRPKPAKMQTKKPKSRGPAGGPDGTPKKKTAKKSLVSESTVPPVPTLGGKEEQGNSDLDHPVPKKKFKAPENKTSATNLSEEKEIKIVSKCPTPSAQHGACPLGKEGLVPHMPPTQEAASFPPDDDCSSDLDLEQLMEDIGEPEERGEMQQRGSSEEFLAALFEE

B1: HDAC6 (endogenous, mouse testes) (enzyme, UniProt Q9Z2V5 1-1149)
chain: MTSTGQDSSTRQRKSRHNPQSPLQESSATLKRGGKKCAVPHSSPNLAEVKKKGKMKKLSQPAEEDLVVGLQGLDLNPETRVPVGTGLVFDEQLNDFHCLWDDSFPESPERLHAIREQLILEGLLGRCVSFQARFAEKEELMLVHSLEYIDLMETTQYMNEGELRVLAETYDSVYLHPNSYSCACLATGSVLRLVDALMGAEIRNGMAVIRPPGHHAQHNLMDGYCMFNHLAVAARYAQKKHRIQRVLIVDWDVHHGQGTQFIFDQDPSVLYFSIHRYEHGRFWPHLKASNWSTIGFGQGQGYTINVPWNQTGMRDADYIAAFLHILLPVASEFQPQLVLVAAGFDALHGDPKGEMAATPAGFAHLTHLLMGLAGGKLILSLEGGYNLRALAKGVSASLHTLLGDPCPMLESCVVPCASAQTSIYCTLEALEPFWEVLERSVETQEEDEVEEAVLEEEEEEGGWEATALPMDTWPLLQNRTGLVYDEKMMSHCNLWDNHHPETPQRILRIMCHLEEVGLAARCLILPARPALDSELLTCHSAEYVEHLRTTEKMKTRDLHREGANFDSIYICPSTFACAKLATGAACRLVEAVLSGEVLNGIAVVRPPGHHAEPNAACGFCFFNSVAVAARHAQIIAGRALRILIVDWDVHHGNGTQHIFEDDPSVLYVSLHRYDRGTFFPMGDEGASSQVGRDAGIGFTVNVPWNGPRMGDADYLAAWHRLVLPIAYEFNPELVLISAGFDAAQGDPLGGCQVTPEGYAHLTHLLMGLAGGRIILILEGGYNLASISESMAACTHSLLGDPPPQLTLLRPPQSGALVSISEVIQVHRKYWRSLRLMKMEDKEECSSSRLVIKKLPPTASPVSAKEMTTPKGKVPEESVRKTIAALPGKESTLGQAKSKMAKAVLAQGQSSEQAAKGTTLDLATSKETVGGATTDLWASAAAPENFPNQTTSVEALGETEPTPPASHTNKQTTGASPLQGVTAQQSLQLGVLSTLELSREAEEAHDSEEGLLGEAAGGQDMNSLMLTQGFGDFNTQDVFYAVTPLSWCPHLMAVCPIPAAGLDVSQPCKTCGTVQENWVCLTCYQVYCSRYVNAHMVCHHEASEHPLVLSCVDLSTWCYVCQAYVHHEDLQDVKNAAHQNKFGEDMPHSH

These molecules were tested against T1, ZCWPW1 (endogenous, mouse testes) (mouse (endogenous in mouse testes)) (assay: affinity purification with mass spectrometry; RIME: cells of PD13-14 or PD16-PD18 WT mouse testes crosslinked in 1% formaldehyde for 15 min, sonicated chromatin; ZCWPW1 immunoprecipitated with rabbit anti-ZCWPW1 (normal rabbit IgG as control), protein A/G magnetic beads, trypsin digest, LC-MS/MS).
In the case of “HDAC2 (endogenous, mouse testes) (from UniProt P70288 1-488) (enzyme)”, the binding is reported as “binds”.
In the case of “SMARCA5 (endogenous, mouse testes) (from UniProt Q91ZW3 1-1051)”, the binding is reported as “binds”.
With “HDAC1 (endogenous, mouse testes) (from UniProt O09106 1-482) (enzyme)” the binding was “binds”.
For “CHD4 (endogenous, mouse testes) (from UniProt Q6PDQ2 1-1915)”, the binding was “binds”.
In the case of “SMCHD1 (endogenous, mouse testes) (from UniProt Q6P5D8 1-2007)”, the binding is reported as “binds”.
In the case of B1, the binding is reported as “binds”.
